# Experimental data published in the supplement of paper PMC8728848.
# The other results are listed elsewhere or left out.
# B1: Blon0732mut (Bifidobacterium longum) (protein)
# chain: MPTSEHKADDATRHLTLIPAPVTLEYTHGTALIGPLVTIEDADQSWETLPIEQLSDELRHRYGVTVLRRRTHGTVISLGLDSRLAHDEYTLDVSESEGIRVRGGGESGLRYGLQTLRQIIGQTSRAIPCLHIQDKPAFAVRAYSLDVTRGRVPTMEFLTWFVDQLALYKYNQFQLYVEHAFAFVELSEAWRGTDPLTAADITYLDEYCARRGIELVPSLATFGHMYMNLRTREHRGLGEFPEDADRPFSFIERMEHHTLNAADPKAHDFASRLIEEYAPLFRSKSFNIGGNETFDLGRGRSAQDAPEAGRDELYAGFVRDLCETLARHGRQPMLWADIALESPRTMDLLPGDITMLNWMYEPQIDESKIQTIATQGRRQFVCPAVRAWSRFFPDYAGAWLNTYHMALAGTKYDAEGMVVTDWGDYGHVNDPRLSVPGLCYGAQNAWNPIEIDAHEMNRRISALVYGDESGRIMDCLARIDSDGVSFPWDLAVQVLELEYGSGTGALNMDVAACMERSSGGKLTLDRTLGCDDARRRMLQWNRERIERRRDCDQVLRDCGDAFAGLDKGGLTAEFLSVMLDGQRLFNELGEELLALADGKDVGSGANRLAADLELWFERYRAQWLSVGRHAELARIAHVVWSLADILRRGAL
# What was measured:
# Assay in all cases: glycan array binding signal (z-score within array); higher = stronger binding
# Details in all cases: glycan notation: IUPAC condensed, linker removed
# Gal(b1-4)Glc6S = target: Gal(b1-4)Glc6S
# Method in brief: (§1)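 From the Consortium for Functional Glycomics database, 3228 arrays were curated, keeping only those whose protein sequence was available. Binding is given as a within-array Z-score averaged across arrays sharing a protein sequence and across linkers. Negative Z-scores can be read as non-binding.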
# Gal(b1-4)GlcNAc = target: Gal(b1-4)GlcNAc
# Method in brief: as §1
# [1] = target: Gal(b1-4)GlcNAc(a1-6)Gal(b1-4)GlcNAc
# Method in brief: as §1
# Gal(b1-4)GlcNAc(b1-2)Man = target: Gal(b1-4)GlcNAc(b1-2)Man
# Method in brief: as §1
# [2] = target: Gal(b1-4)GlcNAc(b1-2)Man(a1-3)Man(b1-4)GlcNAc(b1-4)GlcNAc
# Method in brief: as §1
# [3] = target: Gal(b1-4)GlcNAc(b1-2)Man(a1-3)[Gal(b1-4)GlcNAc(b1-2)Man(a1-6)]Man(b1-4)GlcNAc(b1-4)GlcNAc
# Method in brief: as §1
# [4] = target: Gal(b1-4)GlcNAc(b1-2)Man(a1-3)[Gal(b1-4)GlcNAc(b1-2)Man(a1-6)]Man(b1-4)GlcNAc(b1-4)[Fuc(a1-6)]GlcNAc
# Method in brief: as §1
# [5] = target: Gal(b1-4)GlcNAc(b1-2)Man(a1-3)[Gal(b1-4)GlcNAc(b1-2)Man(a1-6)][Gal(b1-4)GlcNAc(b1-4)]Man(b1-4)GlcNAc(b1-4)[Fuc(a1-6)]GlcNAc
# Method in brief: as §1
# [6] = target: Gal(b1-4)GlcNAc(b1-2)Man(a1-3)[Gal(b1-4)GlcNAc(b1-2)Man(a1-6)][GlcNAc(b1-4)]Man(b1-4)GlcNAc(b1-4)[Fuc(a1-6)]GlcNAc
# Method in brief: as §1
# [7] = target: Gal(b1-4)GlcNAc(b1-2)Man(a1-3)[GlcNAc(b1-2)Man(a1-6)]Man(b1-4)GlcNAc(b1-4)GlcNAc
# Method in brief: as §1
# [8] = target: Gal(b1-4)GlcNAc(b1-2)Man(a1-3)[GlcNAc(b1-4)][Gal(b1-4)GlcNAc(b1-2)Man(a1-6)]Man(b1-4)GlcNAc(b1-4)GlcNAc
# Method in brief: as §1
# [9] = target: Gal(b1-4)GlcNAc(b1-2)Man(a1-3)[Man(a1-6)]Man(b1-4)GlcNAc(b1-4)GlcNAc
# Method in brief: as §1
# [10] = target: Gal(b1-4)GlcNAc(b1-2)Man(a1-6)Man(b1-4)GlcNAc(b1-4)GlcNAc
# Method in brief: as §1
# [11] = target: Gal(b1-4)GlcNAc(b1-2)Man(a1-6)[GlcNAc(b1-2)Man(a1-3)]Man(b1-4)GlcNAc(b1-4)GlcNAc
# Method in brief: as §1
# [12] = target: Gal(b1-4)GlcNAc(b1-2)Man(a1-6)[Man(a1-3)]Man(b1-4)GlcNAc(b1-4)GlcNAc
# Method in brief: as §1
# [13] = target: Gal(b1-4)GlcNAc(b1-2)[Gal(b1-4)GlcNAc(b1-4)]Man(a1-3)[Gal(b1-4)GlcNAc(b1-2)Man(a1-6)]Man(b1-4)GlcNAc(b1-4)GlcNAc
# Method in brief: as §1
# [14] = target: Gal(b1-4)GlcNAc(b1-2)[Gal(b1-4)GlcNAc(b1-4)]Man(a1-3)[Gal(b1-4)GlcNAc(b1-2)[Gal(b1-4)GlcNAc(b1-6)]Man(a1-6)]Man(b1-4)GlcNAc(b1-4)GlcNAc
# Method in brief: as §1
# [15] = target: Gal(b1-4)GlcNAc(b1-2)[Gal(b1-4)GlcNAc(b1-4)]Man(a1-3)[GlcNAc(b1-4)][Gal(b1-4)GlcNAc(b1-2)Man(a1-6)]Man(b1-4)GlcNAc(b1-4)GlcNAc
# Method in brief: as §1
# [16] = target: Gal(b1-4)GlcNAc(b1-2)[Gal(b1-4)GlcNAc(b1-4)]Man(a1-3)[GlcNAc(b1-4)][Gal(b1-4)GlcNAc(b1-2)[Gal(b1-4)GlcNAc(b1-6)]Man(a1-6)]Man(b1-4)GlcNAc(b1-4)GlcNAc
# Method in brief: as §1
# [17] = target: Gal(b1-4)GlcNAc(b1-2)[Gal(b1-4)GlcNAc(b1-6)]Man(a1-6)[Gal(b1-4)GlcNAc(b1-2)Man(a1-3)]Man(b1-4)GlcNAc(b1-4)GlcNAc
# Method in brief: as §1
# [18] = target: Gal(b1-4)GlcNAc(b1-2)[Gal(b1-4)GlcNAc(b1-6)]Man(a1-6)[Gal(b1-4)GlcNAc(b1-2)Man(a1-3)]Man(b1-4)GlcNAc(b1-4)[Fuc(a1-6)]GlcNAc
# Method in brief: as §1
# [19] = target: Gal(b1-4)GlcNAc(b1-2)[Gal(b1-4)GlcNAc(b1-6)]Man(a1-6)[GlcNAc(b1-4)][Gal(b1-4)GlcNAc(b1-2)Man(a1-3)]Man(b1-4)GlcNAc(b1-4)GlcNAc
# Method in brief: as §1
# [20] = target: Gal(b1-4)GlcNAc(b1-2)[Gal(b1-4)GlcNAc(b1-6)]Man(a1-6)[GlcNAc(b1-4)][Gal(b1-4)GlcNAc(b1-2)[Gal(b1-4)GlcNAc(b1-4)]Man(a1-3)]Man(b1-4)GlcNAc(b1-4)[Fuc(a1-6)]GlcNAc
# Method in brief: as §1
# [21] = target: Gal(b1-4)GlcNAc(b1-3)Gal(b1-3)GalNAc
# Method in brief: as §1
# [22] = target: Gal(b1-4)GlcNAc(b1-3)Gal(b1-3)GlcNAc
# Method in brief: as §1
# [23] = target: Gal(b1-4)GlcNAc(b1-3)Gal(b1-4)Glc
# Method in brief: as §1
# [24] = target: Gal(b1-4)GlcNAc(b1-3)Gal(b1-4)GlcNAc
# Method in brief: as §1
# [25] = target: Gal(b1-4)GlcNAc(b1-3)Gal(b1-4)GlcNAc(b1-2)Man(a1-3)[Gal(b1-4)GlcNAc(b1-3)Gal(b1-4)GlcNAc(b1-2)Man(a1-6)]Man(b1-4)GlcNAc(b1-4)GlcNAc
# Method in brief: as §1
# [26] = target: Gal(b1-4)GlcNAc(b1-3)Gal(b1-4)GlcNAc(b1-2)Man(a1-3)[Gal(b1-4)GlcNAc(b1-3)Gal(b1-4)GlcNAc(b1-2)Man(a1-6)]Man(b1-4)GlcNAc(b1-4)[Fuc(a1-6)]GlcNAc
# Method in brief: as §1
# [27] = target: Gal(b1-4)GlcNAc(b1-3)Gal(b1-4)GlcNAc(b1-2)[Gal(b1-4)GlcNAc(b1-3)Gal(b1-4)GlcNAc(b1-6)]Man(a1-6)[Gal(b1-4)GlcNAc(b1-3)Gal(b1-4)GlcNAc(b1-2)Man(a1-3)]Man(b1-4)GlcNAc(b1-4)GlcNAc
# Method in brief: as §1
binder,measurement,setting,value
B1,glycan array binding signal (z-score),Gal(b1-4)Glc6S,0.254
same,glycan array binding signal (z-score),Gal(b1-4)GlcNAc,-0.184
same,glycan array binding signal (z-score),[1],-1.16
same,glycan array binding signal (z-score),Gal(b1-4)GlcNAc(b1-2)Man,1.31
same,glycan array binding signal (z-score),[2],-0.539
same,glycan array binding signal (z-score),[3],0.239
same,glycan array binding signal (z-score),[4],1.37
same,glycan array binding signal (z-score),[5],0.302
same,glycan array binding signal (z-score),[6],-1.12
same,glycan array binding signal (z-score),[7],-0.879
same,glycan array binding signal (z-score),[8],-0.773
same,glycan array binding signal (z-score),[9],-0.218
same,glycan array binding signal (z-score),[10],0.871
same,glycan array binding signal (z-score),[11],-0.3
same,glycan array binding signal (z-score),[12],-0.769
same,glycan array binding signal (z-score),[13],-0.808
same,glycan array binding signal (z-score),[14],-0.73
same,glycan array binding signal (z-score),[15],0.021
same,glycan array binding signal (z-score),[16],-0.049
same,glycan array binding signal (z-score),[17],0.095
same,glycan array binding signal (z-score),[18],-0.962
same,glycan array binding signal (z-score),[19],-0.525
same,glycan array binding signal (z-score),[20],0.039
same,glycan array binding signal (z-score),[21],0.565
same,glycan array binding signal (z-score),[22],-0.175
same,glycan array binding signal (z-score),[23],0.155
same,glycan array binding signal (z-score),[24],1.27
same,glycan array binding signal (z-score),[25],0.992
same,glycan array binding signal (z-score),[26],-0.957
same,glycan array binding signal (z-score),[27],0.393

# Random excerpt: two records from the list.
binder,measurement,setting,value
B1,glycan array binding signal (z-score),[27],0.393
same,glycan array binding signal (z-score),[6],-1.12
